# In PubChem BioAssay AID493014 (National Center for Advancing Translational Sciences (NCATS), 2011):
# Some of the results follow. The main result of the screen is listed elsewhere. These columns were measured beside it and carry no call. Compounds called inactive in the main read-out are mostly missing here. Potencies come from curve fits of mixed quality, noted in brackets.
# Test: qHTS Assay to Find Inhibitors of Chronic Active B-Cell Receptor Signaling
# Settings: ABC-DLBCL IkBa-CBG/CBR reporter, luminescence ratio (green luciferase fused to IkBa over red control in TMD8 lymphoma cells), 4 h
# In short: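 Concentration-response series (up to 46 uM) were applied to TMD8 dual-reporter cells for 4 h at 37C with doxycycline. Green/red ratio, after filter-overlap correction, defined %Activity; red signal alone was normalised to basal cells and zero luminescence.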
# [1] = measured here: CBR red luminescence, cell number
# [2] = measured here: IkBa-CBG green luminescence
SMILES,AC50 [1],AC50 [2]
Cc1ccc2cc(C)c(SCC(=O)NCc3ccco3)nc2c1,"11.2 µM [falling, partial curve]",–
CC(/C=C/c1ccccc1)=N\Nc1nc(-c2ccccc2)cs1,"0.116 µM [rising, full curve, poor fit]",–
CCOC(=O)c1cc(S(=O)(=O)N2CCc3ccccc32)cn1C,"6.31 µM [rising, single point]",–
O=C(/C=C/c1cccs1)Nc1cccnc1,"18.4 µM [falling, single point]",–
CN1CCCCC1CCN1c2ccccc2Sc2ccc(S(C)=O)cc21 (stereo unspecified),"6.51 µM [falling, partial curve, poor fit]",–
Cc1cccc(C(=O)NC(NCCc2ccccc2)C(Cl)(Cl)Cl)c1 (stereo unspecified),"2.82 µM [falling, partial curve, poor fit]",–
C=CCn1c(SCC(=O)Nc2nc(C)cs2)nnc1C(NC(=O)c1ccccc1)C(C)C (stereo unspecified),"13 µM [falling, partial curve, poor fit]","9.2 µM [rising, partial curve, poor fit]"
O=C(Cc1ccc(Cl)cc1Cl)OCC(=O)N1CCCCC1,"1.58 µM [rising, partial curve, poor fit]",–
CC(C)CCNC(=O)c1ccc(CSCc2cccc(F)c2)o1,"13 µM [rising, partial curve, poor fit]",–
CCOC(=O)C1=C(SCC)c2cc3c(n2C1=O)CCCC3,"8.2 µM [falling, partial curve, poor fit]","9.2 µM [rising, partial curve, poor fit]"
O=C(NNC(=S)Nc1cccc(Cl)c1)c1ccccc1OC(F)F,"20.6 µM [falling, single point]",–
COC(=O)CN1C(=O)N/C(=C/c2cc(OC)c(OC)cc2C)C1=O,"10 µM [falling, single point]",–
COc1ccc(/C=N/NC(=O)c2ccc(NS(=O)(=O)c3cccs3)cc2)cc1,"10.3 µM [falling, partial curve]",–
O=C(CCSc1ccccc1)N1CCN(c2ccccc2F)CC1,"0.562 µM [rising, partial curve]",–
CCc1cc2c(=O)n(-c3ccc(Br)cc3)cnc2s1,"10.3 µM [rising, partial curve, poor fit]",–
Cc1cc(C(=O)c2ccccc2)nc2ccccc12,"2.31 µM [rising, full curve]",–
O=S(=O)(c1cccc(-c2nn3c(-c4ccncc4)nnc3s2)c1)N1CCOCC1,"29.1 µM [rising, single point]",–
CCN(CC)CCNC(=O)c1cc2c(-c3cccc(OC)c3)nn(C)c2s1,"22.4 µM [falling, single point]",–
Cc1cccc(N(Cc2ccccc2)C(=O)c2ccc(C)c(S(=O)(=O)N3CCOCC3)c2)c1,"23.1 µM [rising, single point]",–
O=C(C1=NNCC1c1ccccc1)C1OC1c1ccccc1 (stereo unspecified),"17.8 µM [falling, single point]",–
O=C(COC(=O)c1cc(S(=O)(=O)N2CCOCC2)ccc1O)NCC1CCCO1 (stereo unspecified),"15.8 µM [rising, single point]",–

SMILES,AC50 [1],AC50 [2]
COc1ccc(C(C)=O)cc1COC(=O)c1c(C)nn(-c2ccccc2)c1C,"22.4 µM [falling, single point]",–
CCc1c(C(=O)Nc2cc(C)cc(C)c2)[nH]c(C)c1C(C)=O,"4.11 µM [rising, single point]",–
Cc1nnc(SCC(=O)Nc2ccc3c4c(cccc24)CC3)n1C,"2.91 µM [rising, full curve, poor fit]",–
COc1c2c(cc3c1C(CC(O)Cc1ccccc1)N(C)CC3)OCO2 (stereo unspecified),"22.4 µM [falling, single point]",–
Cn1c(O)c(/C=N/NC(=O)c2cc3ccccc3cc2O)c2ccccc21,"3.98 µM [falling, partial curve]",–
CCOC(=O)c1c(C)[nH]c(C)c1S(=O)(=O)N1CCCC(C(=O)N2CCN(c3cccc(Cl)c3)CC2)C1 (stereo unspecified),"3.16 µM [rising, partial curve, poor fit]",–
COc1ccc(-c2cc(C3CCN(c4cc(Cl)nc(N)n4)CC3)[nH]n2)cc1,"35.5 µM [falling, single point]",–
Cc1cnc(NC(=O)CSc2ncc(-c3ccccc3)n2Cc2ccco2)s1,"23.1 µM [falling, partial curve, poor fit]",–
COc1ccc2c3c(cccc13)C(=O)CC2,"10 µM [falling, partial curve, poor fit]",–
COc1ccc(C2OC(=O)CC2C(=O)N2CCN(c3cc(Cl)ccc3C)CC2)cc1OC (stereo unspecified),"4.61 µM [falling, single point]",–
COc1ccc(OC[C@@H](O)CNC(=O)c2cccc3c2C(=O)c2ccc(-c4ccc(F)cc4OCc4ccccc4)cc2S3(=O)=O)cc1,"5.17 µM [rising, partial curve]",–
FC(F)(F)c1cccc(-c2nnc(-c3ccccc3)c(N3CCOCC3)n2)c1,"2.24 µM [rising, partial curve, poor fit]",–
CCn1cc(C(=O)OCC(=O)Nc2cccc(S(=O)(=O)N3CCOCC3)c2)c(=O)c2ccc(C)nc21,"4.11 µM [rising, partial curve, poor fit]",–
Cc1ccc(Nc2cc(C)nc(NCc3ccccc3)n2)cc1,"29.1 µM [falling, single point]",–
CCOc1cc(C(=O)N/N=C/c2ccsc2)cc(OCC)c1OCC,"29.1 µM [rising, single point]","18.4 µM [falling, single point]"
Oc1ccc(NCc2ccccc2OCc2ccccc2)cc1,"10.3 µM [rising, partial curve]","13 µM [falling, partial curve]"
Cc1cccc(NC(=O)c2ccccc2C(=O)O)c1,"4.61 µM [falling, single point]",–
COC(=O)c1ccc(C23CC4(C2)[C@H](CN(Cc2ccc(C(F)(F)F)cc2)[C@@H]4c2ccccc2)C3c2ccc(C(F)(F)F)cc2)cc1 (stereo partly specified),"14.1 µM [falling, partial curve, poor fit]",–
CSc1ccc(/C=N/Nc2nc(C)cc(=O)[nH]2)cc1,"10 µM [falling, partial curve]",–
O=C(CSCc1ccc([N+](=O)[O-])cc1)NC1CCCCCC1,"35.5 µM [falling, single point]",–
O=C(COC(=O)COc1cccc(C(F)(F)F)c1)NC1CCCC1,"1.3 µM [rising, full curve, poor fit]",–

# 3 entries picked at random from the list so far:
SMILES,AC50 [1],AC50 [2]
Cc1cccc(C(=O)NC(NCCc2ccccc2)C(Cl)(Cl)Cl)c1 (stereo unspecified),"2.82 µM [falling, partial curve, poor fit]",–
CCOC(=O)C1=C(SCC)c2cc3c(n2C1=O)CCCC3,"8.2 µM [falling, partial curve, poor fit]","9.2 µM [rising, partial curve, poor fit]"
O=C(Cc1ccc(Cl)cc1Cl)OCC(=O)N1CCCCC1,"1.58 µM [rising, partial curve, poor fit]",–

# Next part

SMILES,AC50 [1],AC50 [2]
CCCCn1c(SCC(N)=O)nc2c(sc3ccccc32)c1=O,"0.13 µM [rising, full curve, poor fit]",–
CC(C)(C)C(=O)NC(=S)NNC(=O)c1ccc(Cl)cc1Cl,"8.91 µM [rising, partial curve, poor fit]",–
CCOC(=O)c1c(CSc2ccccc2)n(C)c2cc(Br)c(O)c(CN(C)C)c12,"11.2 µM [falling, partial curve, poor fit]",–
O=C(/C=C/Nc1ccccc1)c1ccccc1,"5.17 µM [falling, partial curve]",–
COc1ccc2[nH]c3c(c2c1)CCN1C(=O)C(CC(=O)NCCc2ccccn2)C[C@H](C(=O)N2CCCCC2)[C@@]31C (stereo partly specified),"13 µM [rising, partial curve, poor fit]",–
COc1ccc(C(C)=O)cc1COC(=O)CNC(=O)c1cc(C)cc(C)c1,"13 µM [rising, partial curve, poor fit]",–
COc1ccc(/C=N/Nc2nncc3ccccc23)c(OC)c1,"23.1 µM [falling, partial curve]",–
Cc1cc(C(=O)NNC(=S)NCC(C)C)cs1,"13 µM [falling, partial curve]",–
CCc1ccccc1S(=O)(=O)Cc1ccc(C(=O)N2CCN(c3ccccc3OC)CC2)o1,"0.92 µM [rising, full curve, poor fit]",–
Cn1ncc2c(Nc3cccc(C#N)c3)ncnc21,"11.2 µM [falling, single point]",–
Nn1c(SCc2ccc(F)cc2)nnc1-c1ccccn1,"7.94 µM [falling, partial curve, poor fit]",–
CCCCNC(=O)Nc1nc2ccc(CC)cc2s1,"2 µM [rising, full curve, poor fit]",–
COc1ccc(-c2onc(C)c2-c2ccc(C(=O)OC(C)C)o2)c(O)c1,"20.6 µM [falling, partial curve, poor fit]",–
COc1ccccc1N(CC(=O)NC1CCCC1)S(=O)(=O)c1ccc(C)cc1,"35.5 µM [falling, single point]",–
COc1cc(C(=O)Nc2cc(C(F)(F)F)ccc2-n2cncn2)cc(OC)c1OC,"6.31 µM [rising, single point]",–
CCC(C)NCCCCOc1ccc(Cl)cc1C (stereo unspecified),"29.1 µM [falling, single point]",–
Oc1ccccc1-c1nc(NCC2CCCO2)c2ccccc2n1 (stereo unspecified),"18.4 µM [falling, partial curve, poor fit]",–
CC(=O)Nc1ccc(/C(C)=N/Nc2nc(Nc3cccc4ccccc34)nc(N3CCOCC3)n2)cc1,"20.6 µM [falling, partial curve]",–
O=C(Nc1ccc2oc(-c3ccccc3)nc2c1)c1cc(-n2cnnc2)ccc1Cl,"4.47 µM [falling, partial curve]",–
O=C(O)c1cccc(OCc2ccccc2Cl)c1,"8.91 µM [falling, partial curve, poor fit]",–
